Where a sequence shows no end group, the ends are not given.

The nature of the series: general procedure: Boc solid-phase peptide synthesis; Glycyl PAM resin (0.76 meq/g); HCTU. The following applies: oxidative folding step, on reduced TICA1 (18 mg, 5.49 μmole), several disulfide bridges, sequence written open.

The sequence RVCPRILMKCKKDSDCLAECVCLEHGYCG registered an oxidative folding yield of 56%.
